Measured values reported in paper PMC6779109, “The Glutamate Receptor-Like Protein GLR3.7 Interacts With 14-3-3ω and Participates in Salt Stress Response in Arabidopsis thaliana” (Frontiers in Plant Science, 2019).
Changes are numbered by the printed parent chain. Results are given in words; binding and its absence hold for the method and conditions named. For some of these results: In cells and extracts the contact can be indirect. Some binding calls cover weakened binding; strength is not graded here. Where a sequence is shown, tags or fusion partners need not be part of it.

How the values were obtained:
[1] = molecular target: T1, AtGLR3.7 fused to a half of EYFP (GLR3.7-nEYFP and GLR3.7-cEYFP) (Arabidopsis thaliana) (UniProt Q9SDQ4); test: split reporter; BiFC in Arabidopsis leaf protoplasts, halves of EYFP, both orientations, confocal microscopy 12 to 16 h after transformation
T1 sequence: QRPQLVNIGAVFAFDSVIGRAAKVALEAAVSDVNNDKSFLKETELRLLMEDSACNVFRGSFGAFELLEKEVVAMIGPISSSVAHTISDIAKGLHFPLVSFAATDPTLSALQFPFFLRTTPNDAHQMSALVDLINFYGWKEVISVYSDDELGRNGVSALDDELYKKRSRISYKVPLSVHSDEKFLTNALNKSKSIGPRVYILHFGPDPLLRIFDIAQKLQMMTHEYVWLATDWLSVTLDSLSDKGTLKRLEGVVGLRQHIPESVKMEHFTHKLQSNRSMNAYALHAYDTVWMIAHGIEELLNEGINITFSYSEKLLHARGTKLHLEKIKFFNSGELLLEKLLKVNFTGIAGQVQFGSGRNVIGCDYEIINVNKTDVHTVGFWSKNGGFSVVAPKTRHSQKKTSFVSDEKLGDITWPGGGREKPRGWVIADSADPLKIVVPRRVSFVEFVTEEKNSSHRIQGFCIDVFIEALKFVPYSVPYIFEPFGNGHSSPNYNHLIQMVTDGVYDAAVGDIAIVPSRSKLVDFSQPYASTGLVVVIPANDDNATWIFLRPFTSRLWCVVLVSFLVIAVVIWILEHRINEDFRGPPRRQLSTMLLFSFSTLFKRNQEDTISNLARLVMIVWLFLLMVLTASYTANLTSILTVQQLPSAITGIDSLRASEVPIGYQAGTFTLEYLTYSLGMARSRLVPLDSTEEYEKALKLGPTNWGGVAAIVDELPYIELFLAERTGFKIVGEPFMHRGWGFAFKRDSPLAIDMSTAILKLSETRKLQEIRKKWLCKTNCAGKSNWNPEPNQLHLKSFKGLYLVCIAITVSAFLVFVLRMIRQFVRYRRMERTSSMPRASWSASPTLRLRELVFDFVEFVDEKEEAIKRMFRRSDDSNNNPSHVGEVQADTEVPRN

[2] = molecular target: T2, GLR3.7-YFP^N (Arabidopsis thaliana) (UniProt Q9SDQ4); test: split reporter; BiFC in epidermal cells of N. benthamiana, transient expression by A. tumefaciens, YFP^N and YFP^C fusions, DeltaVision Core imaging
T2 sequence: T1 sequence

[3] = molecular target: T3, GLR3.7 S860A-YFP^N (Arabidopsis thaliana) (UniProt Q9SDQ4); test: as above
T3 sequence: T1 sequence with S835A

[4] = molecular target: T4, GST-GLR3.7 P1 recombinant fusion peptide (Ser-860 to Ala) (Arabidopsis thaliana); test: quartz crystal microbalance; GST fusion peptide coated on the sensor to saturation, 6His-14-3-3ω injected into PBS; AFFINIX QN μ, Kd by AQUA software; both purified
T4 sequence: RYRRMERTSAMPRA

B1: 14-3-3ω fused to a half of EYFP (14-3-3ω-cEYFP and 14-3-3ω-nEYFP) (protein, UniProt Q01525 1-259)
chain: MASGREEFVYMAKLAEQAERYEEMVEFMEKVSAAVDGDELTVEERNLLSVAYKNVIGARRASWRIISSIEQKEESRGNDDHVTAIREYRSKIETELSGICDGILKLLDSRLIPAAASGDSKVFYLKMKGDYHRYLAEFKTGQERKDAAEHTLAAYKSAQDIANAELAPTHPIRLGLALNFSVFYYEILNSPDRACNLAKQAFDEAIAELDTLGEESYKDSTLIMQLLRDNLTLWTSDMQDDAADEIKEAAAPKPTEEQQ
binding [1]: binds

B2: 14-3-3ω-YFP^C (protein, UniProt Q01525 1-259)
chain: B1 chain
binding [2]: binds
binding [3]: no binding

B3: 6His-14-3-3ω recombinant protein (protein, UniProt Q01525 1-259)
chain: B1 chain
binding [4]: no binding
